Data from article PMC8898311.

Target: T1, NOP2/Sun RNA methyltransferase 5 (NSUN5) (rat (endogenous in BMSCs of Sprague Dawley rats)) (UniProt G3V660)
T1 sequence: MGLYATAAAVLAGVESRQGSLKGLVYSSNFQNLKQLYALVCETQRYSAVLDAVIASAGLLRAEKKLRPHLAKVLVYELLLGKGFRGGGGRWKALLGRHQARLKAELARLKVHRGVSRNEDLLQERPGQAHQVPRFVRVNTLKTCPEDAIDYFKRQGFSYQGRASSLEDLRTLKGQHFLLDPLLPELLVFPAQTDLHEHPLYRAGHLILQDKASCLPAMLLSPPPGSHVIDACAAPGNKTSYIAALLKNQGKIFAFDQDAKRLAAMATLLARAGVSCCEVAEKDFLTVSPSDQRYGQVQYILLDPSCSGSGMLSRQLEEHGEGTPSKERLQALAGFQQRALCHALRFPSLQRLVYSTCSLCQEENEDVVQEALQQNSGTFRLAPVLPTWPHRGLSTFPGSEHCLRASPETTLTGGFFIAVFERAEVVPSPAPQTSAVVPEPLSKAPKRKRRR
Test: affinity purification with mass spectrometry; co-IP products run on 12.5% nondenaturing polyacrylamide gels, silver stained, analysed by LC-MS/MS (BGI)

binding: binds
B1: tumor necrosis factor receptor-associated protein 1 (TRAP1) (protein, UniProt Q5XHZ0 61-706)
chain: STQAAEDKKEEALHSIISNTEAVQGSVSKHEFQAETKKLLDIVARSLYSEKEVFIRELISNASDALEKLRHKRVCEGQVLPEMEIHLQTDAEKGTITIQDTGIGMTKEELVSNLGTIARSGSKAFLEALQHQAETSSRIIGQFGVGFYSAFMVADKVEVYSRPAAPESPGYQWLSDGSGVFEIAEASGVRPGTKIIIHLKSDCKDFANESRVQDVVTKYSNFVSFPLYLNGRRINTLQAIWMMDPKDISEFQHEEFYRYIAQAYDKPRFILHYKTDAPLNIRSIFYVPEMKPSMFDVSRELGSSVALYSRKVLIQTKATDILPKWLRFVRGVVDSEDIPLNLSRELLQESALIRKLRDVLQQRLIKFFIDQSKKDAEKYAKFFEDYGLFMREGIVTTAEQDIKEDIAKLLRYESSALPAGQLTSLSDYASRMQAGTRNIYYLCAPNRHLAEHSPYYEAMKQKQTEVLFCYEQFDELTLLHLREFDKKKLISVETDIVVDHYKEEKFEDTSPAGERLSEKETEELMAWMRNALGSRVTNVKVTFRLDTHPAMVTVLEMGAARHFLRMQQLAKTQEERAQLLQPTLEINPRHTLIKKLNQLREREPELAQLLVDQIYENAMIAAGLVDDPRAMVGRLNDLLVKALERH

Results are given in words; binding and its absence hold for the method and conditions named. Binding seen in cells or lysates may run through a third protein. A yes stands for co-enrichment or nearness to the bait. Other partners may have been found.
